Experimental data from US10856548B2, “Oxime group-containing condensed heterocyclic compound or salt thereof, agricultural and horticultural insecticide comprising the compound or the salt, and method for using the insecticide” (Nihon Nohyaku Co., Ltd., priority 2016, dated 2020).
Some results were stated once for a whole list of compounds, not compound by compound.

How the values were obtained:
Assay type in all cases: in vivo
[1] = test system: Green peach aphids (Myzus persicae); assay: Test for control efficacy on Myzus persicae (foliar application, Chinese cabbage); details: 500 ppm, foliar application to potted Chinese cabbage plants, 6 days after the foliar application
[2] = test system: Laodelphax striatellus; assay: Insecticidal test on Laodelphax striatellus (rice seedling dip); details: 500 ppm, rice seedlings dipped 30 seconds, ten 3rd-instar larvae, 8 days after the inoculation
[3] = test system: Plutella xylostella; assay: Insecticidal test on Plutella xylostella (dip of Chinese cabbage seedlings with laid eggs); details: 500 ppm, seedlings with laid eggs dipped about 30 seconds, 25° C., 6 days after the dip treatment, criteria of Test Example 2

`CCS(=O)(=O)c1cc(/C(=N/OCC(F)(F)F)OC)cnc1-c1nc2cc(SC(F)(F)F)ccc2o1` [Compound 3-76, methyl 5-ethylsulfonyl-N-(2,2,2-trifluoroethoxy-6-(5-trifluoromethylthio)benzo[d]oxazol-2-yl)nicotin imidate] was tested, and the “control efficacy (control rate), activity level” value (“control efficacy (control rate)” for short) [1] was “A (the control rate is 100%)”, the “insecticidal efficacy (corrected mortality rate), activity level” value [2] was “A (the corrected mortality rate is 100%)” and the “insecticidal efficacy (corrected mortality rate, hatched larvae), activity level” value [3] was “A (the corrected mortality rate is 100%)”.

With `CCCO/C(=N\OCC(F)(F)F)c1cnc(-c2nc3cc([S+]([O-])C(F)(F)F)ccc3o2)c(S(=O)(=O)CC)c1` (stereo not drawn) [Compound 3-282, propyl 5-ethylsulfonyl-N-(2,2,2-trifluoroethoxy)-6-(5-(trifluoromethylsulfinyl)benzo[d]oxazol-2-yl)nicotin imidate] the “control efficacy (control rate)” value [1] was “A (the control rate is 100%)”, the “insecticidal efficacy (corrected mortality rate), activity level” value [2] was “A (the corrected mortality rate is 100%)” and the “insecticidal efficacy (corrected mortality rate, hatched larvae), activity level” value [3] was “A (the corrected mortality rate is 100%)”.

For `CCS(=O)(=O)c1cc(/C(=N/OCC(F)(F)F)n2cncn2)cnc1-c1nc2cc([S+]([O-])C(F)(F)F)ccc2o1` (stereo not drawn) [Compound 3-289], the “control efficacy (control rate)” value [1] was “A (the control rate is 100%)”, the “insecticidal efficacy (corrected mortality rate), activity level” value [2] was “A (the corrected mortality rate is 100%)” and the “insecticidal efficacy (corrected mortality rate, hatched larvae), activity level” value [3] was “A (the corrected mortality rate is 100%)”.

In the case of `CCS(=O)(=O)c1cc(/C(=N/OCC(F)(F)F)NC(C)=O)cnc1-c1nc2cc([S+]([O-])C(F)(F)F)ccc2o1` (stereo not drawn) [Compound 3-291], the “control efficacy (control rate)” value [1] is reported as “A (the control rate is 100%)”, the “insecticidal efficacy (corrected mortality rate), activity level” value [2] is reported as “A (the corrected mortality rate is 100%)” and the “insecticidal efficacy (corrected mortality rate, hatched larvae), activity level” value [3] is reported as “A (the corrected mortality rate is 100%)”.

For “methyl 5-ethylsulfonyl-N-(2,2,2-trifluoroethoxy)-6-(5-(trifluoromethylthio)benzo[d]oxazol-2-yl)pyridine-3-carboimide thioate [Compound 3-288]”, the “control efficacy (control rate)” value [1] was “A (the control rate is 100%)”, the “insecticidal efficacy (corrected mortality rate), activity level” value [2] was “A (the corrected mortality rate is 100%)” and the “insecticidal efficacy (corrected mortality rate, hatched larvae), activity level” value [3] was “A (the corrected mortality rate is 100%)”.
